Drawing on patent US20150225704A1, this text covers binding for one substance.

Protein sequences, listed by entry. Tags and fused reporters are not part of them. Lines headed by an entry give the natural chain unless they say otherwise; changes in a name come on top.
UniProt P46734: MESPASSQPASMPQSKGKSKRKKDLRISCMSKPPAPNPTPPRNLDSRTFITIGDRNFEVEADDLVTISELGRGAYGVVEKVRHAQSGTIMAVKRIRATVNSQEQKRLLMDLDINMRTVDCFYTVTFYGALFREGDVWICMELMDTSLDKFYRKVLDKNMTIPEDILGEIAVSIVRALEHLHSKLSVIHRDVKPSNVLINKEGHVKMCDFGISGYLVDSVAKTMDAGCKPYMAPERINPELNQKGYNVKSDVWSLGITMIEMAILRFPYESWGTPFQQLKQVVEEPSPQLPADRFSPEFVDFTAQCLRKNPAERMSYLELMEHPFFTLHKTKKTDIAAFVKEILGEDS
UniProt Q8IUH5: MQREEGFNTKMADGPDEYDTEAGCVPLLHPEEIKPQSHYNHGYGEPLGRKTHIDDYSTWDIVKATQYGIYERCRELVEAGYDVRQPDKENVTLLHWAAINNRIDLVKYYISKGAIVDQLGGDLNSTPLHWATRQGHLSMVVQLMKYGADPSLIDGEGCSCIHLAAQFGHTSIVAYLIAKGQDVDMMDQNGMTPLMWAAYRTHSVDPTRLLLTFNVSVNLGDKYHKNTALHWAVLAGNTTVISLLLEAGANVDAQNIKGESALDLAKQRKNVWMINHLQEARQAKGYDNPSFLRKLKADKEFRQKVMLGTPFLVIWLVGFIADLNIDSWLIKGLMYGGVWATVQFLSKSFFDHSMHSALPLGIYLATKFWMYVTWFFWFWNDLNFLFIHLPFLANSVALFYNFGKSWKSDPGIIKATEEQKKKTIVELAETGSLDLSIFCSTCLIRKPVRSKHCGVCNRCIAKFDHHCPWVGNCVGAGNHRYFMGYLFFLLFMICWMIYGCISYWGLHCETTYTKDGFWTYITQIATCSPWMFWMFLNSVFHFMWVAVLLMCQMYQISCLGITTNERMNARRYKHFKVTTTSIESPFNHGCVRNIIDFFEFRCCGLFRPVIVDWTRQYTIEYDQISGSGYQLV

The target of the experiment is FLAG-MKK3 (UniProt P46734). The experiment in a line: co-immunoprecipitation, HEK293 cells.

No constants are given. Whether binding was seen depends on the method and setting. In cells and extracts the contact can be indirect.

For “myc-tagged full-length palmitoyl acyl transferase zinc-finger DHHC type containing 17 (zD17) (from UniProt Q8IUH5 1-632) (enzyme)”, the binding result was “no binding”.
